13 molecules from publication PMC10193302 can be followed below.

The chains behind the UniProt entries cited, without tags or fusion partners.
UniProt P80316: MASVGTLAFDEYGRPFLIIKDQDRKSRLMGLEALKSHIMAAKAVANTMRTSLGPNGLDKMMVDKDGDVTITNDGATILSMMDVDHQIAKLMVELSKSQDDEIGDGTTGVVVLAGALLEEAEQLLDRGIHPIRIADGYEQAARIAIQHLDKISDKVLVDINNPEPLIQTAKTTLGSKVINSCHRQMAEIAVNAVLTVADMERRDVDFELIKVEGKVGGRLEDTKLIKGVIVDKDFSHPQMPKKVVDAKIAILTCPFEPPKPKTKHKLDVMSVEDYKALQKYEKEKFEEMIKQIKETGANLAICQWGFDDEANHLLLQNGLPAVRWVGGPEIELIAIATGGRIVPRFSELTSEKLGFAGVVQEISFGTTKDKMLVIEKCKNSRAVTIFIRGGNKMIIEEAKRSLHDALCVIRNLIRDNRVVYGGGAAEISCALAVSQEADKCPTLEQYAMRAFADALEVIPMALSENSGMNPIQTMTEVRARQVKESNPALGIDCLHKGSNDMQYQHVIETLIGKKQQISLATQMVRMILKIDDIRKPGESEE
UniProt E9Q4F7: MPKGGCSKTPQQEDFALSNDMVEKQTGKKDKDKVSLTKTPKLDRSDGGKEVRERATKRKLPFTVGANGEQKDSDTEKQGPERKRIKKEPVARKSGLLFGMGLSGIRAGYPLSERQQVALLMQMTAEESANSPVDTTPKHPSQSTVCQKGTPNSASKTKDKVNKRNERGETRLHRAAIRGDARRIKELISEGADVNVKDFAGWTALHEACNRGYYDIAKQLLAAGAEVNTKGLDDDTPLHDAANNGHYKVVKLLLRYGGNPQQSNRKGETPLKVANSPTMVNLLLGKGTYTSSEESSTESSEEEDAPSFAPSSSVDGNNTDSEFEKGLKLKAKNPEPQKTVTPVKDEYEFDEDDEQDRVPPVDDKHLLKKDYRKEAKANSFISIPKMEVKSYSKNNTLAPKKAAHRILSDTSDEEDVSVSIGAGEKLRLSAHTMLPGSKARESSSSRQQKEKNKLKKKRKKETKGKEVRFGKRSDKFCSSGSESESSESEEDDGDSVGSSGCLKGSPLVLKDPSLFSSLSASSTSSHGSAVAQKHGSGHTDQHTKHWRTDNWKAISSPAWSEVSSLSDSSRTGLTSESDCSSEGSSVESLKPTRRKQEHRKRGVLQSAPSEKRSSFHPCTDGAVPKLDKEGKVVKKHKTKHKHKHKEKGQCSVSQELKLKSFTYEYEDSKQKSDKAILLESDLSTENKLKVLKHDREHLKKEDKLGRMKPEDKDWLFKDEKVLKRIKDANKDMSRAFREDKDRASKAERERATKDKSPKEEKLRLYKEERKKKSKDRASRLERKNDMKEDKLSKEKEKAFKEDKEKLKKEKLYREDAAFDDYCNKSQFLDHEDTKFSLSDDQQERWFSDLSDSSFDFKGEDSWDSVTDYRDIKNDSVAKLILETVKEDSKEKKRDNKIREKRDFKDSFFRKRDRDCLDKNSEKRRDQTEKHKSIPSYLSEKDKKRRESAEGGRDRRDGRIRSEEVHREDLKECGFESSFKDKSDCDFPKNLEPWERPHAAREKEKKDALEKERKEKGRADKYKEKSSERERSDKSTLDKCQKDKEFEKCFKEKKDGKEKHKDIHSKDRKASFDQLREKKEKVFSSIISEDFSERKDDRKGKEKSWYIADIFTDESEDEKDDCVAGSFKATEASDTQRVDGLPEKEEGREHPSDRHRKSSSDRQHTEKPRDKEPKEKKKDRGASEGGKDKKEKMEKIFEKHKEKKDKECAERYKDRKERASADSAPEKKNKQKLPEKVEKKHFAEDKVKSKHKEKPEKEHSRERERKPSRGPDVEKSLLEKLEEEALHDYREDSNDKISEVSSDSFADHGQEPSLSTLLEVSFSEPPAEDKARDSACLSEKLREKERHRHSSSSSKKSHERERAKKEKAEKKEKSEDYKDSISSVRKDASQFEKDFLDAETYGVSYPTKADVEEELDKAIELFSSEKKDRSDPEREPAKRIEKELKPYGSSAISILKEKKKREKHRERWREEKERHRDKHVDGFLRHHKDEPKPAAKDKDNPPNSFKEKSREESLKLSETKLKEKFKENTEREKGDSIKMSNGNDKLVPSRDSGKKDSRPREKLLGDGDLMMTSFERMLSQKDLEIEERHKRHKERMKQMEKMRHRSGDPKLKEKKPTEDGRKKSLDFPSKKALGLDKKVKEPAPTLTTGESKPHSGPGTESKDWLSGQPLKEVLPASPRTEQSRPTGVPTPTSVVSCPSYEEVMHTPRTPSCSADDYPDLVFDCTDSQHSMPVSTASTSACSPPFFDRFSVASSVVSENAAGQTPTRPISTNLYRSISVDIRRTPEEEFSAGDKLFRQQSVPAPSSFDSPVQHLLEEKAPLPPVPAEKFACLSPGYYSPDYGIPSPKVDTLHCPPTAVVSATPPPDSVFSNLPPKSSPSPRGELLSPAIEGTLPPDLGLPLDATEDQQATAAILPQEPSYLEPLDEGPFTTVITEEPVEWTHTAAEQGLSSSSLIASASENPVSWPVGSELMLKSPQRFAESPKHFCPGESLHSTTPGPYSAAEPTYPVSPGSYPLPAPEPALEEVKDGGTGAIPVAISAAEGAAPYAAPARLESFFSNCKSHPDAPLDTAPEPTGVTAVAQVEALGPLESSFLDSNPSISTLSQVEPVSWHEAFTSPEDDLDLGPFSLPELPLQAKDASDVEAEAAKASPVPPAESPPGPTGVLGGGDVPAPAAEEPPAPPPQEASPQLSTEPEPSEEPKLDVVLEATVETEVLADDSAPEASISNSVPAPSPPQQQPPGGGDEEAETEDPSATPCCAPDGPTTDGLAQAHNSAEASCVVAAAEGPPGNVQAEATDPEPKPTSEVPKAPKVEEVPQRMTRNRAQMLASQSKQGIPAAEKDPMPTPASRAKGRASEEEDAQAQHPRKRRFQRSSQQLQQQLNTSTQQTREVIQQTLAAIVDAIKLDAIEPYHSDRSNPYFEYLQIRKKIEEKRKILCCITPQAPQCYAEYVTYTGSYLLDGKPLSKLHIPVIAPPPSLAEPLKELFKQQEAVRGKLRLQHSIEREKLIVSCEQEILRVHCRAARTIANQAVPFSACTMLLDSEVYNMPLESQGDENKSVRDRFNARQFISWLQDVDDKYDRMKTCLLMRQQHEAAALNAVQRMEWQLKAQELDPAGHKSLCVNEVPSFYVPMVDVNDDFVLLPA
UniProt P11983: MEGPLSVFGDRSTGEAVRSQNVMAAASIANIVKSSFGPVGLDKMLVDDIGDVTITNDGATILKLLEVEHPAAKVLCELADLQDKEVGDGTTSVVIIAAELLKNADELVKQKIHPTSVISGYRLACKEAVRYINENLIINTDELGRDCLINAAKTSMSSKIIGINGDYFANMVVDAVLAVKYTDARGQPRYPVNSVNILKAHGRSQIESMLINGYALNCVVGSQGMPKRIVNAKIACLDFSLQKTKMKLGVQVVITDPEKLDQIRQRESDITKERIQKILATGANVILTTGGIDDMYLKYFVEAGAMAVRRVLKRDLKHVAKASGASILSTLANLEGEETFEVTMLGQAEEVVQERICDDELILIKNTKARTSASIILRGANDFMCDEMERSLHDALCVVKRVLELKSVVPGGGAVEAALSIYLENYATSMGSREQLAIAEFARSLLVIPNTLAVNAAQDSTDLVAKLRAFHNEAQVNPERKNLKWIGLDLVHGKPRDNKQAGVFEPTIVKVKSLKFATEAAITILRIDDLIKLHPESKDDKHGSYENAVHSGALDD
UniProt Q61390: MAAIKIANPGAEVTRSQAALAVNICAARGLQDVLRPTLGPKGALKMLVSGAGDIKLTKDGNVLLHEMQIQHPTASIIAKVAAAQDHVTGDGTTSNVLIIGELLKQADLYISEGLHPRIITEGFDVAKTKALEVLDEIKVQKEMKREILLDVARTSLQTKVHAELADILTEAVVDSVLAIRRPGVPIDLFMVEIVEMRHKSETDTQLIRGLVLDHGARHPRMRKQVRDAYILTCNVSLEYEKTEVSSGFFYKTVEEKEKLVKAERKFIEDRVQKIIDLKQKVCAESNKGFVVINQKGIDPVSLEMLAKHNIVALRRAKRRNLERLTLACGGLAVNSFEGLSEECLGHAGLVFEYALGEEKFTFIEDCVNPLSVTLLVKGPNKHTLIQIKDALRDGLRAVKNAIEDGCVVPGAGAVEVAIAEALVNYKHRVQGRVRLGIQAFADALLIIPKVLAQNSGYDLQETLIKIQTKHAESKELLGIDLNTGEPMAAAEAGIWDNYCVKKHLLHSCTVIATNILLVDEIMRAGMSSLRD
UniProt P80317: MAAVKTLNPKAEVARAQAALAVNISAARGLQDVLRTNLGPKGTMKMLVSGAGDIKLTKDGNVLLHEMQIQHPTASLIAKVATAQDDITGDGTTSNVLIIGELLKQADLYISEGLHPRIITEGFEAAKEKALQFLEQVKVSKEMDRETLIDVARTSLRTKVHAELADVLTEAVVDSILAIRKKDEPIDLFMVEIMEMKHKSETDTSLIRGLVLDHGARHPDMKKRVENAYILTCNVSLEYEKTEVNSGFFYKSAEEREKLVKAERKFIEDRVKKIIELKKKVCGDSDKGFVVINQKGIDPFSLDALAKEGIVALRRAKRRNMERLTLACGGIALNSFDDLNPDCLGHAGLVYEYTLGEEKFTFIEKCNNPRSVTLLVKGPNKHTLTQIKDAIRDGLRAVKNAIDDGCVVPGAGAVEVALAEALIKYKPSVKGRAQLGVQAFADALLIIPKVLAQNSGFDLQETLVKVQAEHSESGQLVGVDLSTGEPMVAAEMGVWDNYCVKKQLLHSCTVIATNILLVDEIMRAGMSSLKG

Results are given in words; binding and its absence hold for the method and conditions named. In cells and extracts the contact can be indirect. A yes stands for co-enrichment or nearness to the bait. Other partners may have been found. Where a sequence is shown, tags or fusion partners need not be part of it.

Assay [1] concerns the target T1, 3xFlag-tagged Tbl1x (transducin (beta)-like 1 X-linked), construct PiggyBac-CAG-Avi-Tbl1x-3xFlag-ires-Neo (UniProt Q9QXE7).
T1 sequence: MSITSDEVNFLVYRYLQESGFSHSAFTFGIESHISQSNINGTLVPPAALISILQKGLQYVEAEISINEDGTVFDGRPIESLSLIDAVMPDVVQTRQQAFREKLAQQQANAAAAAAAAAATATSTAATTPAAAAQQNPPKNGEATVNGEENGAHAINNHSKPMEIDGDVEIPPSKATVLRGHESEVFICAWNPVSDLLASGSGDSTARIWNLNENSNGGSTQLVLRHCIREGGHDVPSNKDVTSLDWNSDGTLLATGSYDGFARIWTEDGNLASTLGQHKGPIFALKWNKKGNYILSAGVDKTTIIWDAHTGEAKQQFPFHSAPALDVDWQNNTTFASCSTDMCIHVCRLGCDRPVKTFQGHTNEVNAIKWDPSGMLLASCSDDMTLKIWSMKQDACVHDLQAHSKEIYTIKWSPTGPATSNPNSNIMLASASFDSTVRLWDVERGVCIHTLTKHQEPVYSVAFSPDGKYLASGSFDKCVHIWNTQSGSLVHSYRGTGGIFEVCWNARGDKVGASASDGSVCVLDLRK
Briefly: affinity purification with mass spectrometry; anti-FLAG M2 agarose on nuclear extract of TSCs stably expressing Tbl1x-3xFlag, after 3 h PD0325901 or 48 h withdrawal of Fgf and CM with CHIR99021; 3 h at 4 C with Benzonase, buffer D (20 mM Hepes pH 7.6, 20% glycerol, 100 mM KCl); compared to an empty vector line, n = 3.

In assay [2] the target is T2, 3xFlag-tagged Erf (Ets2 repressor factor), construct PiggyBac-CAG-Avi-Erf-3xFlag-ires-Neo (mouse) (UniProt P70459).
T2 sequence: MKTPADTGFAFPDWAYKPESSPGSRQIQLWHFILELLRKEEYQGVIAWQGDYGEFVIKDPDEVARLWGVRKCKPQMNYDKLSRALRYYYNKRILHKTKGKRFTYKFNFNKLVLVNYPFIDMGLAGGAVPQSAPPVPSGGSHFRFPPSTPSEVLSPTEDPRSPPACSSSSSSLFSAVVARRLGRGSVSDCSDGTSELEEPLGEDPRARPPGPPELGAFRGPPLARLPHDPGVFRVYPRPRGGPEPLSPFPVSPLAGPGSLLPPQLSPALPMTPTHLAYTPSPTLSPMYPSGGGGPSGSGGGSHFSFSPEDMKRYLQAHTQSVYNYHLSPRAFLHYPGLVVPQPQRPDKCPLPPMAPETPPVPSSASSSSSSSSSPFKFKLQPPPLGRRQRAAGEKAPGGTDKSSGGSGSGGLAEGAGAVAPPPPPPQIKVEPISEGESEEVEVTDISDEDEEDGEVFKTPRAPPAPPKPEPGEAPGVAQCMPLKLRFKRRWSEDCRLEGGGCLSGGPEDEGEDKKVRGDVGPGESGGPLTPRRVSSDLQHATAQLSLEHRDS
Briefly: affinity purification with mass spectrometry; anti-FLAG M2 agarose on nuclear extract of TSCs stably expressing Erf-3xFlag, treated with PD0325901 for 3 h and 24 h; 3 h at 4 C with Benzonase, buffer D (20 mM Hepes pH 7.6, 20% glycerol, 100 mM KCl); compared to an empty vector line, n = 3.

In the case of Cct5 (from UniProt P80316 1-541), the binding result in assay [1] was “binds”. For the molecule “Nuclear receptor co-repressor 1 (from UniProt Q60974 1-2453)”, the binding result in assay [1] and in assay [2] was “binds” in each case. As to Ankrd11 (from UniProt E9Q4F7 1-2643), the binding result in assay [1] and in assay [2] was “binds” throughout. As to Tcp1 (from UniProt P11983 1-556), the binding result in assay [1] was “binds”. As for Cct6b (from UniProt Q61390 1-531), the binding result in assay [1] is listed as “binds”. On to Cct6a (from UniProt P80317 1-531), for which the binding entry in assay [1] is given as “binds”.

B1: Cct8 (protein, UniProt P42932 1-548)
chain: MALHVPKAPGFAQMLKDGAKHFSGLEEAVYRNIQACKELAQTTRTAYGPNGMNKMVINRLEKLFVTNDAATILRELEVQHPAAKMIVMASHMQEQEVGDGTNFVLVFAGALLELAEELLRIGLSVSEVISGYEIACKKAHEILPELVCCSAKNLRDVDEVSSLLRTSIMSKQYGSETFLAKLIAQACVSIFPDSGNFNVDNIRVCKILGSGIYSSSVLHGMVFKKETEGDVTSVKDAKIAVYSCPFDGMITETKGTVLIKTAEELMNFSKGEENLMDAQVKAIAGTGANVIVTGGKVADIALHYANKYNIMLVRLNSKWDLRRLCKTVGATALPKLTPPVQEEMGHCDSVYLSEVGDTQVVVFKHEKEDGAISTIVLRGSTDNLMDDIERAVDDGVNTFKVLTRDKRLVPGGGATEIELAKQITSYGETCPGLEQYAIKKFAEAFEAIPRALAENSGVKANEVISKLYSVHQEGNKNVGLDIEAEVPAVKDMLEASILDTYLGKYWAIKLATNAAVTVLRVDQIIMAKPAGGPKPPSGKKDWDDDQND
For B1, the binding result in assay [1] is given as “binds”.

B2: transducin (beta)-like 1 X-linked (protein, UniProt Q9QXE7 1-527)
chain: MSITSDEVNFLVYRYLQESGFSHSAFTFGIESHISQSNINGTLVPPAALISILQKGLQYVEAEISINEDGTVFDGRPIESLSLIDAVMPDVVQTRQQAFREKLAQQQANAAAAAAAAAATATSTAATTPAAAAQQNPPKNGEATVNGEENGAHAINNHSKPMEIDGDVEIPPSKATVLRGHESEVFICAWNPVSDLLASGSGDSTARIWNLNENSNGGSTQLVLRHCIREGGHDVPSNKDVTSLDWNSDGTLLATGSYDGFARIWTEDGNLASTLGQHKGPIFALKWNKKGNYILSAGVDKTTIIWDAHTGEAKQQFPFHSAPALDVDWQNNTTFASCSTDMCIHVCRLGCDRPVKTFQGHTNEVNAIKWDPSGMLLASCSDDMTLKIWSMKQDACVHDLQAHSKEIYTIKWSPTGPATSNPNSNIMLASASFDSTVRLWDVERGVCIHTLTKHQEPVYSVAFSPDGKYLASGSFDKCVHIWNTQSGSLVHSYRGTGGIFEVCWNARGDKVGASASDGSVCVLDLRK
Turning to B2, the binding entry in assay [2] is given as “binds”.

B3: Ets2 repressor factor (protein, UniProt P70459 1-551)
chain: MKTPADTGFAFPDWAYKPESSPGSRQIQLWHFILELLRKEEYQGVIAWQGDYGEFVIKDPDEVARLWGVRKCKPQMNYDKLSRALRYYYNKRILHKTKGKRFTYKFNFNKLVLVNYPFIDMGLAGGAVPQSAPPVPSGGSHFRFPPSTPSEVLSPTEDPRSPPACSSSSSSLFSAVVARRLGRGSVSDCSDGTSELEEPLGEDPRARPPGPPELGAFRGPPLARLPHDPGVFRVYPRPRGGPEPLSPFPVSPLAGPGSLLPPQLSPALPMTPTHLAYTPSPTLSPMYPSGGGGPSGSGGGSHFSFSPEDMKRYLQAHTQSVYNYHLSPRAFLHYPGLVVPQPQRPDKCPLPPMAPETPPVPSSASSSSSSSSSPFKFKLQPPPLGRRQRAAGEKAPGGTDKSSGGSGSGGLAEGAGAVAPPPPPPQIKVEPISEGESEEVEVTDISDEDEEDGEVFKTPRAPPAPPKPEPGEAPGVAQCMPLKLRFKRRWSEDCRLEGGGCLSGGPEDEGEDKKVRGDVGPGESGGPLTPRRVSSDLQHATAQLSLEHRDS
For B3, the binding entry in assay [1] is reported as “binds”.

B4: transducin (beta)-like 1 X-linked receptor 1 (protein, UniProt Q8BHJ5 1-514)
chain: MSISSDEVNFLVYRYLQESGFSHSAFTFGIESHISQSNINGALVPPAALISIIQKGLQYVEAEVSINEDGTLFDGRPIESLSLIDAVMPDVVQTRQQAYRDKLAQQHAAAAAAAAAATNQQGSAKNGENTANGEENGAHTIANNHTDMMEVDGDVEIPSNKAVVLRGHESEVFICAWNPVSDLLASGSGDSTARIWNLSENSTSGPTQLVLRHCIREGGQDVPSNKDVTSLDWNSEGTLLATGSYDGFARIWTKDGNLASTLGQHKGPIFALKWNKKGNFILSAGVDKTTIIWDAHTGEAKQQFPFHSAPALDVDWQSNNTFASCSTDMCIHVCKLGQDRPIKTFQGHTNEVNAIKWDPTGNLLASCSDDMTLKIWSMKQDNCVHDLQAHNKEIYTIKWSPTGPGTNNPNANLMLASASFDSTVRLWDVDRGICIHTLTKHQEPVYSVAFSPDGRYLASGSFDKCVHIWNTQTGALVHSYRGTGGIFEVCWNAAGDKVGASASDGSVCVLDLRK
For B4, the binding result in assay [1] and in assay [2] was “binds” throughout.

B5: Cct2 (protein, UniProt P80314 1-535)
chain: MASLSLAPVNIFKAGADEERAETARLSSFIGAIAIGDLVKSTLGPKGMDKILLSSGRDAALMVTNDGATILKNIGVDNPAAKVLVDMSRVQDDEVGDGTTSVTVLAAELLREAESLIAKKIHPQTIISGWREATKAAREALLSSAVDHGSDEARFWQDLMNIAGTTLSSKLLTHHKDHFTKLAVEAVLRLKGSGNLEAIHVIKKLGGSLADSYLDEGFLLDKKIGVNQPKRIENAKILIANTGMDTDKIKIFGSRVRVDSTAKVAEIEHAEKEKMKEKVERILKHGINCFINRQLIYNYPEQLFGAAGVMAIEHADFAGVERLALVTGGEIASTFDHPELVKLGSCKLIEEVMIGEDKLIHFSGVALGEACTIVLRGATQQILDEAERSLHDALCVLAQTVKDPRTVYGGGCSEMLMAHAVTQLANRTPGKEAVAMESFAKALRMLPTIIADNAGYDSADLVAQLRAAHSEGHITAGLDMKEGTIGDMAVLGITESFQVKRQVLLSAAEAAEVILRVDNIIKAAPRKRVPDHHPC
In the case of B5, the binding result in assay [1] is “binds”.

B6: Cct3 (protein, UniProt P80318 1-545)
chain: MMGHRPVLVLSQNTKRESGRKVQSGNINAAKTIADIIRTCLGPKSMMKMLLDPMGGIVMTNDGNAILREIQVQHPAAKSMIEISRTQDEEVGDGTTSVIILAGEMLSVAEHFLEQQMHPTVVISAYRMALDDMISTLKKISTPVDVNNREMMLSIINSSITTKVISRWSSLACNIALDAVKTVQFEENGRKEIDIKKYARVEKIPGGIIEDSCVLRGVMINKDVTHPRMRRYIKNPRIVLLDSSLEYKKGESQTDIEITREEDFTRILQMEEEYIHQLCEDIIQLKPDVVITEKGISDLAQHYLMRANVTAIRRVRKTDNNRIARACGARIVSRPEELREDDVGTGAGLLEIKKIGDEYFTFITDCKDPKACTILLRGASKEILSEVERNLQDAMQVCRNVLLDPQLVPGGGASEMAVAHALTEKSKAMTGVEQWPYRAVAQALEVIPRTLIQNCGASTIRLLTSLRAKHTQESCETWGVNGETGTLVDMKELGIWEPLAVKLQTYKTAVETAVLLLRIDDIVSGHKKKGDDQNRQTGAPDAGQE
For B6, the binding entry in assay [1] was “binds”.

B7: Cct7 (protein, UniProt P80313 1-544)
chain: MMPTPVILLKEGTDSSQGIPQLVSNISACQVIAEAVRTTLGPRGMDKLIVDGRGKATISNDGATILKLLDVVHPAAKTLVDIAKSQDAEVGDGTTSVTLLAAEFLKQVKPYVEEGLHPQIIIRAFRTATQLAVNKIKEIAVTVKKQDKVEQRKMLEKCAMTALSSKLISQQKVFFAKMVVDAVMMLDELLQLKMIGIKKVQGGALEESQLVAGVAFKKTFSYAGFEMQPKKYKNPKIALLNVELELKAEKDNAEIRVHTVEDYQAIVDAEWNILYDKLEKIHQSGAKVILSKLPIGDVATQYFADRDMFCAGRVPEEDLKRTMMACGGSIQTSVNALVPDVLGHCQVFEETQIGGERYNFFTGCPKAKTCTIILRGGAEQFMEETERSLHDAIMIVRRAIKNDSVVAGGGAIEMELSKYLRDYSRTIPGKQQLLIGAYAKALEIIPRQLCDNAGFDATNILNKLRARHAQGGMWYGVDINNENIADNFQAFVWEPAMVRINALTAASEAACLIVSVDETIKNPRSTVDPPAPSAGRGRGQARFH
On to B7, for which the binding entry in assay [1] was “binds”.
